This note sets out measurements from doi:10.1101/2024.11.20.624382, “Reconstitution of SPO11-dependent double-strand break formation” (bioRxiv, 2024).

Assay [1] addresses T1, mouse SPO11–TOP6BL complex (1:1) (mouse) (UniProt Q9WTK8+J3QMY9). The assay can be described thus: mass photometry; Refeyn OneMP; 28 nM protein; 25 mM HEPES-NaOH pH 7.5, 150 mM NaCl, 2 mM DTT; without ATP; both purified.
The target of assay [2] is T1, mouse SPO11–TOP6BL complex (1:1) (mouse). Put plainly: mass photometry; Refeyn OneMP; 28 nM protein; 25 mM HEPES-NaOH pH 7.5, 150 mM NaCl, 2 mM DTT; with 5 mM ATP; both purified.
For assay [3] the target is unchanged. Put plainly: SEC; Superdex 200 Increase 10/300 GL after anti-Flag M2 affinity purification of the co-expressed proteins; lysis buffer 25 mM HEPES-NaOH pH 7.5, 500 mM NaCl; both purified. In general terms: In gel filtration, larger molecules generally elute earlier.

These are yes or no findings as the source states them, for the method shown.

B1: mouse SPO11–TOP6BL complex (1:1) (complex, UniProt Q9WTK8-1 1-396; J3QMY9-1 1-579)
chain 1: MAFAPMGPEASFFDALDRHRASLLAMVKRGAGETPAGATRVASSSEVLTAIENIIQDIIKSLARNEVPAFTIDNRSSWENIMFDDSVGLRMIPQCTTRKIRSDSPKSVKKFALILKVLSMIYKLIQSDTYATKRDIYYTDSQLFGNQAAVDSAIDDISCMLKVPRRSLHVLSTSKGLIAGNLRYMEEDGTRVQCTCSATATAVPTNIQGMQHLITDAKFLLIVEKDATFQRLLDDNFCSRMSPCIMVTGKGVPDLNTRLLVKKLWDTFHIPVFTLVDADPYGIEIMCIYKYGSMSMSFEAHNLTIPTIRWLGLLPSDIQRLNIPKDSLIPLTKHDQMKLDSILKRPYITYQPLWKKELEMMADSKMKAEIQALTLLSSDYLSRVYLPNKLRFGGWI
chain 2: MERTALAVCEILRYLIIHWKCEAGTAKGTLLDGQLVISIEALRSKHLPDSLHCIITIASTRSVYGGLNFKKFLQEIQPALPRLSAKLALASEEGGRSQDASGIAPCQVTFEVDENSQSLMTDCLVIKHFLRKIIIVHHKLKFSFSVAVNGTLSAETFGAENEPTLRLDNGVTLVVGFQRYVSKPKLNWSEAHCSRIHPVLGHPAPLFIPDAKADTGLLGELTLTPAAALCPSPKGFSSQLCRISSVSIFLYGPLGLPLLSSDQDQPSTAVFRDTSYFIDWKKYNLFMVPNLDLNLDTQSVLPDVNYKAESPEGNQSQNMNAQGPALLLFLFVDFQSDVPVQQAKIWGLHTLLTAHLSAILSESRSTVQQSIQSAVDQVWQLYHHDAKTQQRLQASLSVAVNSIMSVLTGSTRSSFRKTCLQALEAADTQEFGVKLHRIFYDITQHQFLKHCSCDTEQHLTPEKNISAQNTKDQHKNIAQEFPEESIGQAENKRPKRGSPNHGREESRVLGSARDRSPPKSATRDRELTEVSLTARGSQTQAAHGRAQAAEAASPAGGLEDLWLQEVSNLSEWLNPGHRS
With B1, the binding entry in assay [1] is listed as “no binding (tested: 28 nM)”; in assay [2], “no binding (tested: 28 nM)”; in assay [3], “no binding”.
